Reference: paper PMC6620326, “Structural characterization of life-extending Caenorhabditis elegans Lipid Binding Protein 8” (Scientific Reports, 2019)
These are yes or no findings as the source states them, for the method shown.

Target: Caenorhabditis elegans Lipid Binding Protein 8 (LBP-8), wild type, full length (Caenorhabditis elegans) (UniProt O02324)
Assay: SEC; HiLoad 16/60 Superdex 75 column, compared with gel filtration standards; 20 mM Tris HCl pH 7.4, 150 mM NaCl, 5% glycerol; both purified

binding: no binding
B1: Caenorhabditis elegans Lipid Binding Protein 8 (LBP-8), wild type, full length (protein, UniProt O02324 1-137)
chain: MVSMKEFIGRWKLVHSENFEEYLKEIGVGLLIRKAASLTSPTLEIKLDGDTWHFNQYSTFKNNKLAFKIREKFVEIAPDERSYNTLVTFENGKFISHQDKIKENHHSSVFTTWLENGKLLQTYQSGSVICRREFVKE
